{"sequences": {"note": "By UniProt entry, the sequences of proteins in these tests, tags left out. Where a name states a change or a piece, a line headed by the entry shows the natural chain unless it says otherwise. Residues count along the entry.", "UniProt P08581": "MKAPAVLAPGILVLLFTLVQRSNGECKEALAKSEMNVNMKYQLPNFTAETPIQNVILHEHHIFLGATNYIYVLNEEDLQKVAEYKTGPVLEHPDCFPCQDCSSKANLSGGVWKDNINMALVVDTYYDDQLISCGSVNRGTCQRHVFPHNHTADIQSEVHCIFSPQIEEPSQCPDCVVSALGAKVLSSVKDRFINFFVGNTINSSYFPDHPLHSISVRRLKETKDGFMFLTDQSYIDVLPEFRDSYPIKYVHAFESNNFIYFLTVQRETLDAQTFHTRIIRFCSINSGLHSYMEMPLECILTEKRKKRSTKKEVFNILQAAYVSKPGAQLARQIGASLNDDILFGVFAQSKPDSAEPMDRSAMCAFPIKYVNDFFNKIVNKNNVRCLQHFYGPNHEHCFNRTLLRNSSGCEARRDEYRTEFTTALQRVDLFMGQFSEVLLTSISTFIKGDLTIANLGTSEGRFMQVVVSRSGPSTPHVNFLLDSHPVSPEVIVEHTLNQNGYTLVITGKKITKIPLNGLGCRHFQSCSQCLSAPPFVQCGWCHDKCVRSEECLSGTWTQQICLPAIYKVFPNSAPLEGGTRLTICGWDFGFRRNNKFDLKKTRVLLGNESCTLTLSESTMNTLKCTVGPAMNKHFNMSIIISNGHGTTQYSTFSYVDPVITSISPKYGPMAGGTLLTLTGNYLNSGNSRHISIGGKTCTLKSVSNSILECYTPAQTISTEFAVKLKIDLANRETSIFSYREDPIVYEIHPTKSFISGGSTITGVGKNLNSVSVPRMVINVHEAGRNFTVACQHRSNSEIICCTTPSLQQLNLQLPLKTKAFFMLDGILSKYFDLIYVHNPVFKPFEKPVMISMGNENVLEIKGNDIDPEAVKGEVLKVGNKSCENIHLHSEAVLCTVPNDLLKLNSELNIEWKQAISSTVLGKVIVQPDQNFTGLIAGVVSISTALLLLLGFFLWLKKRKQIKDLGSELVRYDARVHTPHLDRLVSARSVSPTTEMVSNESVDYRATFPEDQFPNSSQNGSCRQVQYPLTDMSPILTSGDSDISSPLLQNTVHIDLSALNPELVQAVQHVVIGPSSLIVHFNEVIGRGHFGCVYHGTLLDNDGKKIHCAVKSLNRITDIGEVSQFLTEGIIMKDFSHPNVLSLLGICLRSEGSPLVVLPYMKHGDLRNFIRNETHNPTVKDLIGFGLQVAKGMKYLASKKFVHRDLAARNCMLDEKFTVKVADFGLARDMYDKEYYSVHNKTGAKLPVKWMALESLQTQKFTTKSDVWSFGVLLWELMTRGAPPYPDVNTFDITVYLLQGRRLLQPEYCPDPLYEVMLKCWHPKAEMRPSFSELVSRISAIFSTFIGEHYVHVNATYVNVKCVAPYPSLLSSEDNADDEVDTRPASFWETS", "c-Met (human (endogenous in HepG2 and Hep3B))": "residues 25-1390 of P08581"}, "source": "paper doi:10.1101/2024.11.07.622557", "key": {"[1]": {"target": "T1, LgBiT-tagged HHLA2 (UniProt Q9UM44)", "T1 sequence": "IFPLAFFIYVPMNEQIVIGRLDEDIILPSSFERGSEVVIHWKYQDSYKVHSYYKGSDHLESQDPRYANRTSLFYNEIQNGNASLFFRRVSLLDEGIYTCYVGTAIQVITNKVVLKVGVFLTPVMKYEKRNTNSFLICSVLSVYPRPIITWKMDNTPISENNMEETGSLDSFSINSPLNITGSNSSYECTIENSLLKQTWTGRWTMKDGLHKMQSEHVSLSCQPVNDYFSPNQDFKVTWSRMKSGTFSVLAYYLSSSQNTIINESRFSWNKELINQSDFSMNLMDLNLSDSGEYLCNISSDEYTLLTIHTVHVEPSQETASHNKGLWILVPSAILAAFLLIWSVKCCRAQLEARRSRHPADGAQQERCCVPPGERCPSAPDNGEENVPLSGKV", "assay": "split reporter"}, "[2]": {"target": "T2, HHLA2-HA (UniProt Q9UM44)", "T2 sequence (chain, extensively glycosylated (smeared band on western blots); sites not stated)": "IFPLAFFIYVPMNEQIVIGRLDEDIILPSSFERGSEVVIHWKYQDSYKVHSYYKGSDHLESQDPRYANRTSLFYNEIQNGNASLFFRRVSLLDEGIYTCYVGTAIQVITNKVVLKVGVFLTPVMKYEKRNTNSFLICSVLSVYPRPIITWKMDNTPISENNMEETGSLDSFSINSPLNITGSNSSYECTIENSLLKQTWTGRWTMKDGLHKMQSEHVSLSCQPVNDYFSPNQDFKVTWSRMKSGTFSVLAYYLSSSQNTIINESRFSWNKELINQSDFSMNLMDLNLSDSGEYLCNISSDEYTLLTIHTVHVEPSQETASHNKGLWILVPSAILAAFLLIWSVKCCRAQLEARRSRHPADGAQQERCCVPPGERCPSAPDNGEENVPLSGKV", "assay": "co-IP"}, "[3]": {"target": "c-Met (human (endogenous in HepG2 and Hep3B)) (UniProt P08581)", "assay": "co-IP"}}, "note": "Results are given in words; binding and its absence hold for the method and conditions named. In cells and extracts the contact can be indirect. Some entries that bind do so weakly or less than the wild type. Sequences can lack the tags named with a protein.", "data": [{"molecule": "c-MET-ExD-SmBit-6His recombinant protein (from UniProt P08581 25-932) (domain or fragment)", "values": [{"measurement": "binding", "setting": "[1]", "value": "binds"}]}, {"molecule": "c-Met (from UniProt P08581 25-1390) (receptor)", "values": [{"measurement": "binding", "setting": "[2]", "value": "binds"}]}, {"molecule": "HHLA2-HA (protein, UniProt Q9UM44 23-414, extensively glycosylated (smeared band on western blots); sites not stated) IFPLAFFIYVPMNEQIVIGRLDEDIILPSSFERGSEVVIHWKYQDSYKVHSYYKGSDHLESQDPRYANRTSLFYNEIQNGNASLFFRRVSLLDEGIYTCYVGTAIQVITNKVVLKVGVFLTPVMKYEKRNTNSFLICSVLSVYPRPIITWKMDNTPISENNMEETGSLDSFSINSPLNITGSNSSYECTIENSLLKQTWTGRWTMKDGLHKMQSEHVSLSCQPVNDYFSPNQDFKVTWSRMKSGTFSVLAYYLSSSQNTIINESRFSWNKELINQSDFSMNLMDLNLSDSGEYLCNISSDEYTLLTIHTVHVEPSQETASHNKGLWILVPSAILAAFLLIWSVKCCRAQLEARRSRHPADGAQQERCCVPPGERCPSAPDNGEENVPLSGKV", "values": [{"measurement": "binding", "setting": "[3]", "value": "binds"}]}]}
